# Results published in patent US9469659B2, “Compositions and methods for improving glucose uptake” (Board of Supervisors of Louisiana State University and …, priority 2012, dated 2016).
# Some of these results come from one statement about several compounds together.
# Tested on: 3T3-L1 cells
# Assay: Glucose uptake under basal and insulin stimulated conditions (FIG. 2)
# Assay type: cell-based
# Conditions: 24 hours exposure
# Method: Next, glucose uptake by 3T3-L1 cells exposed to compounds 1-5 was determined at 5 μM concentration. Cells were exposed to compounds 1-5 for 24 hours and exposure to DMSO was used as the control group. 2-Deoxy glucose (2-DG) uptake was determined using the analog compounds without serum starving the cells prior to determining glucose uptake. As indicated in FIG. 1 glucose uptake in 3T3-L1 pre-adipocytes was determined by exposing cells to compounds 1-5 for 24 hours without serum starvation. All compounds show significant increase (p<0.05) in glucose uptake under basal conditions compared with the DMSO treated control cells. To confirm these observations glucose uptake was examined under basal and insulin stimulated conditions with cells exposed to compounds 1-5 for 24 hours.
smiles,measurement,setting,value
CC1(C)OB(c2ccc(NC(C#N)c3cc(-c4ccc(F)cc4)on3)cc2)OC1(C)C (centres unmarked) [Compound 1],Glucose uptake under basal and insulin stimulated conditions,,increased glucose uptake
CC1(C)OB(c2ccc(NC(C#N)c3cc(-c4ccccc4)on3)cc2)OC1(C)C (centres unmarked) [Compound 2],Glucose uptake under basal and insulin stimulated conditions,,increased glucose uptake
Cc1cc(C(C#N)Nc2ccc(B3OC(C)(C)C(C)(C)O3)cc2)no1 (centres unmarked) [Compound 3],Glucose uptake under basal and insulin stimulated conditions,listed as compound 3,increased glucose uptake
N#CC(Nc1ccc([B-](F)(F)F)cc1)c1cc(-c2ccc(F)cc2)on1 (centres unmarked) [Compound 4],Glucose uptake under basal and insulin stimulated conditions,listed as compound 4,increased glucose uptake
N#CC(Nc1ccc([B-](F)(F)F)cc1)c1ccco1 (centres unmarked) [Compound 5],Glucose uptake under basal and insulin stimulated conditions,listed as compound 5,increased glucose uptake
